These results are taken from article PMC2853515.

The chains behind the UniProt entries cited, without tags or fusion partners. Residues count along the entry.
UniProt Q13751, residues 18-1172: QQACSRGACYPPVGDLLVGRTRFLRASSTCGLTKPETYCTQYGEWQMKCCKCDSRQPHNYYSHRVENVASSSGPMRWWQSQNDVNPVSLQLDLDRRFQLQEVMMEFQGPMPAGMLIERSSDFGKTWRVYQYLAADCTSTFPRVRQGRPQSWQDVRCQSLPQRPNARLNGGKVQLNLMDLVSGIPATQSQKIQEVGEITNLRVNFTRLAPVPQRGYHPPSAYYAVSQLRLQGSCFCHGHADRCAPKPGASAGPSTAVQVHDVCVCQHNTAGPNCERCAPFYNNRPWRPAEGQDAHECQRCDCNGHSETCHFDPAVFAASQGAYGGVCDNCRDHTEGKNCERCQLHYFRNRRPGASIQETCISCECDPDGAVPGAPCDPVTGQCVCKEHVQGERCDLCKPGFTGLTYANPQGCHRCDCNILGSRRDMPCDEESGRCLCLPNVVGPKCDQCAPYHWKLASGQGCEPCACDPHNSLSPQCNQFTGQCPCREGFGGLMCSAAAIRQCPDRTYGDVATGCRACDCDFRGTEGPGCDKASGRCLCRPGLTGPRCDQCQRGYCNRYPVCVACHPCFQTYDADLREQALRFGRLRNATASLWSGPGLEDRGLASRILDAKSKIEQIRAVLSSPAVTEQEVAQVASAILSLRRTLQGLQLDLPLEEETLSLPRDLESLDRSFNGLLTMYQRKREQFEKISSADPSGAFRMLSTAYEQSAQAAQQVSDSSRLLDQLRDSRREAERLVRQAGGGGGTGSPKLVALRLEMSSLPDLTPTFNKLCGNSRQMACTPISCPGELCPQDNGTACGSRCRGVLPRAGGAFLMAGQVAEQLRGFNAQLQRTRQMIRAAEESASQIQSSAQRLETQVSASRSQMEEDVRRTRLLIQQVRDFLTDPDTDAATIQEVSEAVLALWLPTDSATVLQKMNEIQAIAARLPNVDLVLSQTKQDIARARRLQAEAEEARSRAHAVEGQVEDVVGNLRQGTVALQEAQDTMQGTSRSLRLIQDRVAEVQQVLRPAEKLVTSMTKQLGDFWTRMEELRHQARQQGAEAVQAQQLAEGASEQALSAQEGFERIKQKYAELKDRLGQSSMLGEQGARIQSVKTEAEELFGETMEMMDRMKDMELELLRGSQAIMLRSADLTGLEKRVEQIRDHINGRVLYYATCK

The target of test [1] is T1, laminin-γ2 chain (human (endogenous in SW620 and LT97)) (UniProt Q13753).
T1 sequence: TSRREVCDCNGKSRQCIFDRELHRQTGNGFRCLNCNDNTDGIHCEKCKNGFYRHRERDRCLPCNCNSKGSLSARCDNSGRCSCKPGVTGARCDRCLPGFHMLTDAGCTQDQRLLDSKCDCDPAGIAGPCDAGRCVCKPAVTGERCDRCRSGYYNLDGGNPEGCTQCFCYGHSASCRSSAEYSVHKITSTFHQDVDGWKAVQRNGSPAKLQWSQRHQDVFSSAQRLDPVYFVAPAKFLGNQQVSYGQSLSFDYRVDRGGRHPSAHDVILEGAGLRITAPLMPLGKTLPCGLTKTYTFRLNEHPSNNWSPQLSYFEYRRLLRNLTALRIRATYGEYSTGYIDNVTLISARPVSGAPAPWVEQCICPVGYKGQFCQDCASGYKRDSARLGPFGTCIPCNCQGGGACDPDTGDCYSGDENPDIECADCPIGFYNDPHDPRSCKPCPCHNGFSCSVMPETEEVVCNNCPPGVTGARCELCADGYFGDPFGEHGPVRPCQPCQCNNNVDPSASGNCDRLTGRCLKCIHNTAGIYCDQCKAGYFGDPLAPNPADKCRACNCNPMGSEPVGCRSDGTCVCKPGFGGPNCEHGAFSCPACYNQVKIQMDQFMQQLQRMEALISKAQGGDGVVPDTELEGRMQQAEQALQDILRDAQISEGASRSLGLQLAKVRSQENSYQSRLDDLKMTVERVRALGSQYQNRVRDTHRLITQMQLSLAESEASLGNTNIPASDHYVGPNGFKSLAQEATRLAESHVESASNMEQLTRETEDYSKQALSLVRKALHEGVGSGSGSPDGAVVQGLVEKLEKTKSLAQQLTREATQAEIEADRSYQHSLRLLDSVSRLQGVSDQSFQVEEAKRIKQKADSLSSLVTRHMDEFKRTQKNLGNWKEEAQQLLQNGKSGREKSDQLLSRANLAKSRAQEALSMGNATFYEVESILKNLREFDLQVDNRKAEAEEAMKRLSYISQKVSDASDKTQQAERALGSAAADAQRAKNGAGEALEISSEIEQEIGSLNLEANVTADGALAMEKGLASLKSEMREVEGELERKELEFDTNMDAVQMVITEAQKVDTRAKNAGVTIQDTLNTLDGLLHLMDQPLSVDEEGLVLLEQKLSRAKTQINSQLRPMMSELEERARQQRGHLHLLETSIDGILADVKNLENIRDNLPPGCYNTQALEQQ
Description: Western blot under reducing conditions with laminin chain-specific antibodies; conditioned media of LT97 adenoma cells treated with TGFβ and TNFα; data not shown.

In test [2] the target is T1, laminin-γ2 chain (human (endogenous in SW620 and LT97)). Description: SDS-PAGE under non-reducing conditions with Western blot; proteins from conditioned media of SW620 cells treated with TGFβ and TNFα for 48 h; 8% polyacrylamide gel without dithiothreitol; probed with laminin-γ2-specific antibody 2140 (same pattern with MAB 19562). Background: A western blot detects proteins with antibodies after separation by electrophoresis.

These are yes or no findings as the source states them, for the method shown. Some entries that bind do so weakly or less than the wild type.

With “laminin-β3 chain (from UniProt Q13751 18-1172)”, in test [1], the binding result is given as “binds”.

B1: laminin-γ2 chain (protein, UniProt Q13753 22-1193)
chain: T1 sequence
On to B1, for which the binding result in test [2] was “no binding”.
